Measured data: PubChem BioAssay AID1159578 (Peter MacCallum Cancer Centre, 2015)

Screen: 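siRNA pools altering how lymphatic endothelial cells close a scratch wound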 (primary screen)
Cell system: human lymphatic endothelial cells
Reagent: siRNA pool against human genes, 40 nM
Duration: 48 h after transfection
Detection: 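High-content imaging of dye-stained cells in a scratch assay measures filled wound area and nuclei per well; duplicate means given as ratio to mock and robust z-score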
Reading the numbers: migration robust z-score: higher = faster migration into the scratch; nuclei per well: higher = more cells in the well
Call rule: 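Pools averaging fewer than 3300 nuclei are never called; remaining pools count as changed when migration robust z lies outside -2 to 2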
Meaning of the calls: active = migration changed; inactive = no migration change, or too few cells
Here is one part, drawn at random, of about 18,000 reagents. In the full data, about 1,030 (5.7%) were called active. 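Inactive calls also include pools with fewer than 3300 nuclei, whose migration was not assessed.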 The raw values are shown without normalisation. Entries without a mark were called inactive. Not all columns of the deposit are shown.

no.	Gene	migration robust z-score	nuclei per well, duplicate mean
1	YJU2B (GeneID 81576)	0.08	6334
2	FNDC3B (GeneID 64778)	-1.67	3512
3	RBL2 (GeneID 5934)	-1.43	4702
4	ZNF160 (GeneID 90338)	-1.12	5812
5	GINS1 (GeneID 9837)	-0.58	6276
6	AUP1 (GeneID 550)	0.14	5520
7	POF1B (GeneID 79983)	-1.51	6310
8	RNF146 (GeneID 81847)	1.09	6406
9	DCLK2 (GeneID 166614)	-1.43	6370
10	IPO8 (GeneID 10526)	1.17	6168
11	PLCXD2 (GeneID 257068)	-0.39	6764
12	SHOX (GeneID 6473)	0.42	6012
13	NHLRC4 (GeneID 283948)	0.13	5744
14	CST9L (GeneID 128821)	0.78	4808
15	ZNF688 (GeneID 146542)	0.85	6912
16	SLC48A1 (GeneID 55652)	-0.71	5542
17	AKNA (GeneID 80709)	-1.18	4419
18	SMYD3 (GeneID 64754)	0.68	4330
19	OR4N3P (GeneID 390539)	-2.7 (active)	3518
20	POU2AF1 (GeneID 5450)	1.15	5306
21	RNFT2 (GeneID 84900)	0.94	6690
22	ARAP1 (GeneID 116985)	-0.85	6071
23	KLHL14 (GeneID 57565)	0.68	5338
24	ZG16 (GeneID 653808)	-0.36	6221
25	NOA1 (GeneID 84273)	-2.21 (active)	5552
26	PSMD3 (GeneID 5709)	-1.16	4974
27	MRPL18 (GeneID 29074)	-0.47	8048
28	FAM89B (GeneID 23625)	0.56	7220
29	CDIP1 (GeneID 29965)	-1.36	3424
30	YIF1B (GeneID 90522)	1.68	6022
31	HSPA2 (GeneID 3306)	0.13	5440
32	HERPUD2 (GeneID 64224)	-0.26	5638
33	MAP3K11 (GeneID 4296)	-0.91	5278
34	NDUFA5 (GeneID 4698)	-0.29	4097
35	SLC22A8 (GeneID 9376)	-0.44	4081
36	FEV (GeneID 54738)	-0.55	5004
37	CABP7 (GeneID 164633)	-0.29	5632
38	SIRT4 (GeneID 23409)	0.88	5799
39	SORCS3 (GeneID 22986)	-0.46	5184
40	KRTAP19-5 (GeneID 337972)	0	5124
41	PTPN22 (GeneID 26191)	-0.44	5368
42	RCAN3 (GeneID 11123)	1.25	5622
43	TMEM141 (GeneID 85014)	-0.46	4936
44	TRO (GeneID 7216)	-0.21	5000
45	HDAC6 (GeneID 10013)	-0.73	3702
46	RGMA (GeneID 56963)	-0.45	5461
47	BOLA2B (GeneID 654483)	0.43	5812
48	NXNL1 (GeneID 115861)	-0.78	8386
49	USP6 (GeneID 9098)	1.58	5360
50	MDH1 (GeneID 4190)	-2.73 (active)	3512
51	EPB41L2 (GeneID 2037)	-0.04	5621
52	HLA-DRB5 (GeneID 3127)	0.02	4910
53	TMEM170A (GeneID 124491)	0.09	5992
54	ATP1B3 (GeneID 483)	-4.46	1896
55	GTF2A1L (GeneID 11036)	-0.08	6133
56	HTR1A (GeneID 3350)	-0.16	4196
57	RIMS4 (GeneID 140730)	-0.99	5108
58	ENTPD6 (GeneID 955)	1.06	4936
59	SH3BGRL (GeneID 6451)	0.19	5193
60	RBX1 (GeneID 9978)	-0.5	7456
61	SDHAF3 (GeneID 57001)	-0.3	5220
62	TMEM186 (GeneID 25880)	0.48	6250
63	C3orf22 (GeneID 152065)	-0.79	4944
64	ENKD1 (GeneID 84080)	-0.28	6472
65	MMRN1 (GeneID 22915)	1.4	5844
66	PLAC8L1 (GeneID 153770)	-1.52	6271
67	SLC5A1 (GeneID 6523)	0.52	5336
68	IKBKB (GeneID 3551)	-1.66	4478
69	GLS2 (GeneID 27165)	0.08	5984
70	RBP2 (GeneID 5948)	-0.6	5486
71	SEC13 (GeneID 6396)	-1.38	3604
72	ACTB (GeneID 60)	1.82	5654
73	ANKLE1 (GeneID 126549)	2.27 (active)	6450
